PMC6833972
These are yes or no findings as the source states them, for the method shown. In cells and extracts the contact can be indirect. Some entries that bind do so weakly or less than the wild type. Sequences can lack the tags named with a protein.

Legend:
Assay in all cases: co-IP; HEK293 cells co-transfected (KCNQ1:KCNE plasmid 1:1), lysed 36-48 h later in 25 mM Tris-HCl pH 7.4, 150 mM NaCl, 1% Nonidet P-40, 5 mM EDTA; IP with mouse anti-HA at 4°C overnight, dynabeads protein G; blot with anti-Myc and anti-HA; mouse normal IgG as negative control; apparent
[1] = molecular target: T1, HA-KCNE2 C-terminal (amino acid residues 73-123) deletion mutant (UniProt Q9Y6J6)
T1 sequence: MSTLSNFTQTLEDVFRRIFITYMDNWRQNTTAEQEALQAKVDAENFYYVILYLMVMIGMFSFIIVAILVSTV

[2] = molecular target: T2, HA-KCNE2, wild type (UniProt Q9Y6J6)
T2 sequence: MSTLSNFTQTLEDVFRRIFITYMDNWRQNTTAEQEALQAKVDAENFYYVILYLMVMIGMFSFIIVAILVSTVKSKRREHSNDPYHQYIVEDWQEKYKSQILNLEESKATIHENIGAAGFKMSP

[3] = molecular target: T3, HA-KCNE2 truncation containing only the KSKR sequence in the C-terminus (UniProt Q9Y6J6)
T3 sequence: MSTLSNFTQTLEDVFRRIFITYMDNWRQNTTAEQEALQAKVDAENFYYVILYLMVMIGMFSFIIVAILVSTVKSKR

Measured: binding

KCNQ1 with a Myc tag (from UniProt P51787 1-676)
binds: [1] | [2] | [3]
